In paper PMC11473679:
These are yes or no findings as the source states them, for the method shown. In cells and extracts the contact can be indirect. Here binding means that the protein was enriched with, or labelled near, the bait; the list need not be complete.

By UniProt entry, the sequences of proteins in these tests, tags left out. Residues count along the entry.
UniProt Q8BMS1, residues 37-763: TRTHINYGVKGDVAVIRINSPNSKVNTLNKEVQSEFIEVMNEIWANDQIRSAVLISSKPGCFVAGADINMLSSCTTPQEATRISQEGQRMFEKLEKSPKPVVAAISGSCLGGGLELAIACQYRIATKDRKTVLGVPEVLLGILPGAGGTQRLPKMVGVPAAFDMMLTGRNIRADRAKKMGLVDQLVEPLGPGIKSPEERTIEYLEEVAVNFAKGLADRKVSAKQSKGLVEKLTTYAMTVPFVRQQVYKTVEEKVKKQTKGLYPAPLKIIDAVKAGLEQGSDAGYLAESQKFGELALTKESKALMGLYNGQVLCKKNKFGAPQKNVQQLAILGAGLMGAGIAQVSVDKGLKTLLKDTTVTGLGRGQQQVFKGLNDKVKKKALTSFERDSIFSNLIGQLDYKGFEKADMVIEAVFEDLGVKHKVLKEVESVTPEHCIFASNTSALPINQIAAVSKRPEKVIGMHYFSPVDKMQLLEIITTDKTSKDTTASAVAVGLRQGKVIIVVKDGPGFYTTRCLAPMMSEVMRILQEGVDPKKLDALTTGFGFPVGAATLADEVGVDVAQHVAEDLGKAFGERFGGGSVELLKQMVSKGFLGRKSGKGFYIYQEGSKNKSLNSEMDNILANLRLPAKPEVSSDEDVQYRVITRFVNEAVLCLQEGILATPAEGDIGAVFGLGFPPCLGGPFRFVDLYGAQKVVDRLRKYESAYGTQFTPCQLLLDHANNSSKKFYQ

Molecular target: T1, Melusin (human, transgenic in the heart of Mel over mice) (human) (UniProt Q9UKP3)
T1 sequence: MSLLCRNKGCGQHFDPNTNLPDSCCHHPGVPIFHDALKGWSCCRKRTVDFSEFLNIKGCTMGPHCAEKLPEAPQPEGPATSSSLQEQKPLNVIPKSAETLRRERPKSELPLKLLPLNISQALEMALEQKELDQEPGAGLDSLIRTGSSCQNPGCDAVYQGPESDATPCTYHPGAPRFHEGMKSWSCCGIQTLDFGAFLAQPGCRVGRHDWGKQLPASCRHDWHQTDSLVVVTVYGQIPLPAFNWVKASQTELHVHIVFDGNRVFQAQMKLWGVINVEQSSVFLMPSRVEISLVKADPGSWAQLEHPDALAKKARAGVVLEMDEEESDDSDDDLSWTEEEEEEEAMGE
Experiment: affinity purification with mass spectrometry; Melusin immunoprecipitation from cardiac total extracts of Mel over mice, Mel null mice as controls; Coomassie-stained bands cut out and identified by mass spectrometry

“α subunit of the mitochondrial trifunctional protein (mouse) (from UniProt Q8BMS1 37-763)” was tested, and the binding was “binds”.

B1: β subunit of the mitochondrial trifunctional protein (mouse) (protein, UniProt Q99JY0 35-475)
chain: SAPAVQTKSKKTLAKPNMKNIVVVEGVRIPFLLSGTSYKDLMPHDLARAALSGLLHRTNIPKDVVDYIIFGTVIQEVKTSNVAREAALGAGFSDKTPAHTVTMACISSNQAMTTAVGLIASGQCDVVVAGGVELMSDVPIRHSRNMRKMMLDLNKAKTLGQRLSLLSKFRLNFLSPELPAVAEFSTNETMGHSADRLAAAFAVSRMEQDEYALRSHSLAKKAQDEGHLSDIVPFKVPGKDTVTKDNGIRPSSLEQMAKLKPAFIKPYGTVTAANSSFLTDGASAMLIMSEDRALAMGYKPKAYLRDFIYVSQDPKDQLLLGPTYATPKVLEKAGLTMNDIDAFEFHEAFSGQILANFKAMDSDWFAQNYMGRKTKVGSPPLEKFNIWGGSLSLGHPFGATGCRLVMAAANRLRKDGGQYALVAACAAGGQGHAMIVEAYPK
With B1 the binding was “binds”.
